Measured values published in PubChem BioAssay AID248 (DTP/NCI, 2004).
The list is a part of this screen's results and no random one: it gathers some chemical classes. Not every dose and run of a compound is shown. T/C: endpoint of the treated group in % of that of the vehicle group. Where survival is the endpoint, this PubChem deposit counts one and a half times the control or more as active, and values a quarter to a half above the control carry no call in these data; other NCI protocols may use other cut-offs. Some entries show no survivor count and are marked so; the dose need not have been tolerated. Schedules are NCI's codes, taken here to give the interval after Q, in days (D) or hours (H), and the number of doses after X. Some entries hold several experiments; the values are given in rising order. Some schedule codes hold Z or #, which are not explained here. Signs of the kind (2×) say how often a value occurs here.

Tested on: L1210 leukemia ip in BDF1 mice, survival T/C
Assay: NCI In Vivo Anticancer Drug Screen. Data for tumor model L1210 Leukemia (intraperitoneal) in B6D2F1 (BDF1) mice
Conditions: higher T/C = longer survival

Question: With O=C(O)Cc1c[nH]c2ccc(N(CCCl)CCCl)cc12 as the compound, how does the T/C (T/C endpoint: mean survival time, dose: 0.06 mg/kg/injection, schedule: Q01DX009 (ip), vehicle: saline) read?
Answer: 111 % of control [survivor count not shown]

Question: And the T/C (T/C endpoint: mean survival time, dose: 0.12 mg/kg/injection, schedule: Q01DX009 (ip), vehicle: saline)?
Answer: 102 % of control [survivor count not shown]

Question: And the T/C (T/C endpoint: mean survival time, dose: 0.25 mg/kg/injection, schedule: Q01DX009 (ip), vehicle: saline)?
Answer: 106 % of control [survivor count not shown]

Question: What about the T/C (T/C endpoint: mean survival time, dose: 0.4 mg/kg/injection, schedule: Q01DX009 (ip), vehicle: Klucel (hydroxypropylcellulose) (HPC)) of the same compound?
Answer: 123 % of control [survivor count not shown]

Question: And the T/C (T/C endpoint: mean survival time, dose: 0.5 mg/kg/injection, schedule: Q01DX009 (ip), vehicle: saline)?
Answer: 146 % of control [survivor count not shown]

Question: And the T/C (T/C endpoint: mean survival time, dose: 0.8 mg/kg/injection, schedule: Q01DX009 (ip), vehicle: Klucel (hydroxypropylcellulose) (HPC))?
Answer: 123 % of control [survivor count not shown]

Question: What about the T/C (T/C endpoint: mean survival time, dose: 1.0 mg/kg/injection, schedule: Q01DX009 (ip), vehicle: saline) of the same compound?
Answer: 164 % of control [survivor count not shown]

Question: And the T/C (T/C endpoint: mean survival time, dose: 1.5 mg/kg/injection, schedule: Q04DX003 (ip), vehicle: Klucel (hydroxypropylcellulose) (HPC))?
Answer: 117 % of control [survivor count not shown]

Question: And the T/C (T/C endpoint: mean survival time, dose: 1.6 mg/kg/injection, schedule: Q01DX009 (ip), vehicle: Klucel (hydroxypropylcellulose) (HPC))?
Answer: 131 % of control [survivor count not shown]

Question: And the T/C (T/C endpoint: mean survival time, dose: 2.0 mg/kg/injection, schedule: Q01DX009 (ip), vehicle: saline)?
Answer: 147 % of control [survivor count not shown]

Question: And the T/C (T/C endpoint: mean survival time, dose: 2.5 mg/kg/injection, schedule: Q01DX001 (ip), vehicle: saline)?
Answer: 116 % of control [survivor count not shown]

Question: And the T/C (T/C endpoint: mean survival time, dose: 3.1 mg/kg/injection, schedule: Q01DX009 (ip), vehicle: Klucel (hydroxypropylcellulose) (HPC))?
Answer: 153 % of control [survivor count not shown]

Question: And the T/C (T/C endpoint: mean survival time, dose: 3.1 mg/kg/injection, schedule: Q04DX003 (ip), vehicle: Klucel (hydroxypropylcellulose) (HPC))?
Answer: 134 % of control [survivor count not shown]

Question: And the T/C (T/C endpoint: mean survival time, dose: 4.0 mg/kg/injection, schedule: Q01DX009 (ip), vehicle: saline)?
Answer: 104 % of control [survivor count not shown]

Question: What about the T/C (T/C endpoint: mean survival time, dose: 5.0 mg/kg/injection, schedule: Q01DX001 (ip), vehicle: saline) of the same compound?
Answer: 130 [survivor count not shown] and 165 % of control [survivor count not shown]

Question: And the T/C (T/C endpoint: mean survival time, dose: 6.2 mg/kg/injection, schedule: Q01DX009 (ip), vehicle: Klucel (hydroxypropylcellulose) (HPC))?
Answer: 103 % of control [survivor count not shown]

Question: What about the T/C (T/C endpoint: mean survival time, dose: 6.2 mg/kg/injection, schedule: Q04DX003 (ip), vehicle: Klucel (hydroxypropylcellulose) (HPC)) of the same compound?
Answer: 161 % of control [survivor count not shown]

Question: And the T/C (T/C endpoint: mean survival time, dose: 8.0 mg/kg/injection, schedule: Q01DX009 (ip), vehicle: saline)?
Answer: 158 % of control [survivor count not shown]

Question: What about the T/C (T/C endpoint: mean survival time, dose: 10.0 mg/kg/injection, schedule: Q01DX001 (ip), vehicle: saline) of the same compound?
Answer: 122 % of control [survivor count not shown]

Question: And the T/C (T/C endpoint: mean survival time, dose: 12.5 mg/kg/injection, schedule: Q04DX003 (ip), vehicle: Klucel (hydroxypropylcellulose) (HPC))?
Answer: 115 [survivor count not shown] and 167 % of control [survivor count not shown]

Question: What about the T/C (T/C endpoint: mean survival time, dose: 15.0 mg/kg/injection, schedule: Q01DX009 (ip), vehicle: saline) of the same compound?
Answer: 154 % of control [survivor count not shown]

Question: What about the T/C (T/C endpoint: mean survival time, dose: 20.0 mg/kg/injection, schedule: Q01DX001 (ip), vehicle: saline) of the same compound?
Answer: 130 % of control [survivor count not shown]

Question: And the T/C (T/C endpoint: mean survival time, dose: 40.0 mg/kg/injection, schedule: Q01DX001 (ip), vehicle: saline)?
Answer: 146 % of control [survivor count not shown]

Question: Which T/C (T/C endpoint: mean survival time, dose: 50.0 mg/kg/injection, schedule: Q04DX003 (ip), vehicle: Klucel (hydroxypropylcellulose) (HPC)) does the source give for O=C(NCCCl)c1ccc(N(CCCl)CCCl)cc1 here?
Answer: 92 % of control [survivor count not shown]

Question: And the T/C (T/C endpoint: mean survival time, dose: 100.0 mg/kg/injection, schedule: Q01DX009 (ip), vehicle: Klucel (hydroxypropylcellulose) (HPC))?
Answer: 96 % of control [survivor count not shown]

Question: And the T/C (T/C endpoint: mean survival time, dose: 100.0 mg/kg/injection, schedule: Q04DX003 (ip), vehicle: Klucel (hydroxypropylcellulose) (HPC))?
Answer: 97 % of control [survivor count not shown]

Question: And the T/C (T/C endpoint: mean survival time, dose: 200.0 mg/kg/injection, schedule: Q01DX009 (ip), vehicle: Klucel (hydroxypropylcellulose) (HPC))?
Answer: 91 % of control [survivor count not shown]

Question: What about the T/C (T/C endpoint: mean survival time, dose: 200.0 mg/kg/injection, schedule: Q04DX003 (ip), vehicle: Klucel (hydroxypropylcellulose) (HPC)) of the same compound?
Answer: 96 % of control [survivor count not shown]

Question: What about the T/C (T/C endpoint: mean survival time, dose: 400.0 mg/kg/injection, schedule: Q01DX009 (ip), vehicle: Klucel (hydroxypropylcellulose) (HPC)) of the same compound?
Answer: 92 % of control [survivor count not shown]

Question: And the T/C (T/C endpoint: mean survival time, dose: 400.0 mg/kg/injection, schedule: Q04DX003 (ip), vehicle: Klucel (hydroxypropylcellulose) (HPC))?
Answer: 105 % of control [survivor count not shown]

Question: What does the source list for O=C(O)CCc1ccc(CN(CCCl)CCCl)cc1?
Answer: T/C (T/C endpoint: mean survival time, dose: 0.9 mg/kg/injection, schedule: Q01DX Z (ip), vehicle: methylcellulose (MC)): 125 % of control [survivor count not shown]; T/C (T/C endpoint: mean survival time, dose: 1.3 mg/kg/injection, schedule: Q01DX Z (ip), vehicle: methylcellulose (MC)): 143 % of control [survivor count not shown]; T/C (T/C endpoint: mean survival time, dose: 1.56 mg/kg/injection, schedule: Q04DX003 (ip), vehicle: saline): 106 % of control [survivor count not shown]; T/C (T/C endpoint: mean survival time, dose: 2.0 mg/kg/injection, schedule: Q01DX Z (ip), vehicle: methylcellulose (MC)): 101 [survivor count not shown], 110 [survivor count not shown], 126 [survivor count not shown], 146 % of control [survivor count not shown]; T/C (T/C endpoint: mean survival time, dose: 2.05 mg/kg/injection, schedule: Q01DX009 (ip), vehicle: saline): 118 % of control [survivor count not shown]; T/C (T/C endpoint: mean survival time, dose: 2.05 mg/kg/injection, schedule: Q04DX003 (ip), vehicle: saline): 111 [survivor count not shown] and 118 % of control [survivor count not shown]; T/C (T/C endpoint: mean survival time, dose: 3.0 mg/kg/injection, schedule: Q01DX Z (ip), vehicle: methylcellulose (MC)): 114 [survivor count not shown], 117 [survivor count not shown] (2×), 140 % of control [survivor count not shown]; T/C (T/C endpoint: mean survival time, dose: 3.12 mg/kg/injection, schedule: Q01DX009 (ip), vehicle: saline): 132 % of control [survivor count not shown]; T/C (T/C endpoint: mean survival time, dose: 3.12 mg/kg/injection, schedule: Q04DX003 (ip), vehicle: saline): 111 [survivor count not shown], 116 [survivor count not shown], 132 % of control [survivor count not shown]; T/C (T/C endpoint: mean survival time, dose: 4.5 mg/kg/injection, schedule: Q01DX Z (ip), vehicle: methylcellulose (MC)): 98 % of control [survivor count not shown]; T/C (T/C endpoint: mean survival time, dose: 4.68 mg/kg/injection, schedule: Q04DX003 (ip), vehicle: saline): 114 [survivor count not shown] and 121 % of control [survivor count not shown]; T/C (T/C endpoint: mean survival time, dose: 5.0 mg/kg/injection, schedule: Q01DX001 (ip), vehicle: carboxymethylcellulose (CMC)): 122 % of control [survivor count not shown]; T/C (T/C endpoint: mean survival time, dose: 10.0 mg/kg/injection, schedule: Q01DX001 (ip), vehicle: carboxymethylcellulose (CMC)): 119 % of control [survivor count not shown]

Question: Which T/C (T/C endpoint: median survival time, dose: 100.0 mg/kg/injection, schedule: Q01DX009 (ip), vehicle: Klucel (hydroxypropylcellulose) (HPC)) does the source give for O/N=C/c1ccc(N(CCCl)CCCl)cc1 here?
Answer: 100 % of control [survivor count not shown]

Question: What about the T/C (T/C endpoint: median survival time, dose: 200.0 mg/kg/injection, schedule: Q01DX009 (ip), vehicle: Klucel (hydroxypropylcellulose) (HPC)) of the same compound?
Answer: 116 % of control [survivor count not shown]

Question: What about the T/C (T/C endpoint: median survival time, dose: 400.0 mg/kg/injection, schedule: Q01DX009 (ip), vehicle: Klucel (hydroxypropylcellulose) (HPC)) of the same compound?
Answer: 110 % of control [survivor count not shown]

Question: O=P(Cl)(Cl)CCBr was tested. Which T/C (T/C endpoint: mean survival time, dose: 20.0 mg/kg/injection, schedule: Q01DX001 (ip), vehicle: Klucel (hydroxypropylcellulose) (HPC)) did it give?
Answer: 106 % of control [survivor count not shown]

Question: And the T/C (T/C endpoint: mean survival time, dose: 20.0 mg/kg/injection, schedule: Q01DX009 (ip), vehicle: Klucel (hydroxypropylcellulose) (HPC))?
Answer: 100 % of control [survivor count not shown]

Question: What about the T/C (T/C endpoint: mean survival time, dose: 20.0 mg/kg/injection, schedule: Q04DX003 (ip), vehicle: Klucel (hydroxypropylcellulose) (HPC)) of the same compound?
Answer: 104 % of control [survivor count not shown]

Question: What about the T/C (T/C endpoint: mean survival time, dose: 40.0 mg/kg/injection, schedule: Q01DX001 (ip), vehicle: Klucel (hydroxypropylcellulose) (HPC)) of the same compound?
Answer: 101 % of control [survivor count not shown]

Question: And the T/C (T/C endpoint: mean survival time, dose: 40.0 mg/kg/injection, schedule: Q01DX009 (ip), vehicle: Klucel (hydroxypropylcellulose) (HPC))?
Answer: 101 % of control [survivor count not shown]

Question: And the T/C (T/C endpoint: mean survival time, dose: 40.0 mg/kg/injection, schedule: Q04DX003 (ip), vehicle: Klucel (hydroxypropylcellulose) (HPC))?
Answer: 116 % of control [survivor count not shown]

Question: What about the T/C (T/C endpoint: mean survival time, dose: 80.0 mg/kg/injection, schedule: Q01DX001 (ip), vehicle: Klucel (hydroxypropylcellulose) (HPC)) of the same compound?
Answer: 103 % of control [survivor count not shown]

Question: What about the T/C (T/C endpoint: mean survival time, dose: 80.0 mg/kg/injection, schedule: Q01DX009 (ip), vehicle: Klucel (hydroxypropylcellulose) (HPC)) of the same compound?
Answer: 94 % of control [survivor count not shown]

Question: What about the T/C (T/C endpoint: mean survival time, dose: 80.0 mg/kg/injection, schedule: Q04DX003 (ip), vehicle: Klucel (hydroxypropylcellulose) (HPC)) of the same compound?
Answer: 106 % of control [survivor count not shown]
